The source of these data is article PMC7819943, “Rice protein-binding microarrays: a tool to detect cis-acting elements near promoter regions in rice”.

Sequences of proteins named here, by UniProt entry; tags and fusion partners are left off.
UniProt Q0JBA9, entry or part of it: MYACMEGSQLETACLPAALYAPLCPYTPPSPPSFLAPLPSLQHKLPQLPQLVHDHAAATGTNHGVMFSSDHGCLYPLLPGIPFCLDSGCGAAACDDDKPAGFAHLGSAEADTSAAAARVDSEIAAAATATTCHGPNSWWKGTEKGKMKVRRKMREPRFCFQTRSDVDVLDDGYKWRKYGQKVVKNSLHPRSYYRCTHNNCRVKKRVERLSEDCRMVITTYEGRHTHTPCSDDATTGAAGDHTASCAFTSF

The other results are listed elsewhere or left out.

The assay addresses OsWRKY34 (Oryza sativa, UniProt Q0JBA9 1-250). The assay is described as follows: protein-binding microarray (RPBM); PBS, 2% BSA, 51.3 ng/ul salmon testes DNA, 50 uM zinc acetate, 200 nM TF, 25 C, 1 h; high values mean tight binding. To be noted: protein: recombinant; tags: N-terminal polyhistidine and DsRed monomer fusion (pET32a); label: CyDye5-dUTP incorporated in the synthesized complementary strand; 3' TTTTT single-stranded linker to array surface; dsDNA, one strand shown. An outline of the steps: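 Per-feature fluorescence intensity (arbitrary units), read on an Axon 4000B scanner, is the binding signal. Transcription factors carrying an N-terminal polyhistidine tag and DsRed fusion were expressed in E. coli BL21-CodonPlus and purified on Ni–NTA. A custom Agilent array, made double-stranded by primer extension with Cy5-dUTP and blocked with 2% BSA, was incubated with 200 nM protein in PBS, 2% BSA, salmon testes DNA and 50 µM zinc acetate at 25 °C for 1 h and then washed.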
On to “GCACCCTCGCCGTTGCAGCTCCATGTGACCACGGAGGGCCCGGAGTCACCTAGTGCAG”, for which the binding signal is 8420 fluorescence intensity (a.u.).
Then “GCTATCCCTCTTATTCTCGCAACCACGCTGATCCCAAACCCGGAGTCACCTAGTGCAG”, with 8340 fluorescence intensity (a.u.).
The value for “ATCCCCACACCTTCTCGCCACGGTCCGACGCGCAAGCGCGCGGAGTCACCTAGTGCAG” was 8310 fluorescence intensity (a.u.); that for “AGCCATAATTACAAACACCTGTGATATACTCTCTTATTTCCGGAGTCACCTAGTGCAG” was 9320 fluorescence intensity (a.u.).
Then “CTGGGCTGACTTTTGCCCTCCCTTGGGCATCCATCTCCTCCGGAGTCACCTAGTGCAG”, with 8510 fluorescence intensity (a.u.); and “ACGCAGGGGAGGGAGGGAGCGGTGGTGGTGGCGGCGGCGCCGGAGTCACCTAGTGCAG”, with 14000 fluorescence intensity (a.u.).
As for “GTTTCGGAAGCCACATCAAGTTTGATCTCTTTCCAAATTACGGAGTCACCTAGTGCAG”, the binding signal is 8640 fluorescence intensity (a.u.).
Turning to “CCGTCAATCTCGCCGTCACCTGCTTCTTCTCCTCTATAAACGGAGTCACCTAGTGCAG”, the binding signal is 10100 fluorescence intensity (a.u.).
Then “ATTCGCCTATCTGAAATTTCGAACTCCCAACATCGCACGACGGAGTCACCTAGTGCAG”, with 8640 fluorescence intensity (a.u.); and “GAAGGAGAAGGAGAGGGGAGGGGCTGACGGGTGGGGTCCACGGAGTCACCTAGTGCAG”, with 14000 fluorescence intensity (a.u.).
For the sequence “CTATTACTCTTGCGCATAACCTTATTTATTTCACTGCAGTCGGAGTCACCTAGTGCAG”, the binding signal was 8180 fluorescence intensity (a.u.).
Then “TTTCTTGATTGTATGTTTGCTGCGTTAAGGGCTTCGGAGACGGAGTCACCTAGTGCAG”, with 8390 fluorescence intensity (a.u.).
As to “GCTGTTCCATGCTCCACAACCCCGGGTCATTGACCCAATCCGGAGTCACCTAGTGCAG”, the binding signal is 16700 fluorescence intensity (a.u.).
Regarding “GTTACGCCAGTGAGGCCGGAGGGGTGTTTGGTTCGGAAAGCGGAGTCACCTAGTGCAG”, the binding signal was 10500 fluorescence intensity (a.u.).
The value for “CCGTTGACTTTTTAGTACGTGTTTGATTCATTCTTAAATACGGAGTCACCTAGTGCAG” was 16200 fluorescence intensity (a.u.); that for “ACTTTTGAGAGTGGTCTGGTTTGGGCTTTCGGCCTTTTTTCGGAGTCACCTAGTGCAG” was 8960 fluorescence intensity (a.u.); that for “GGCGTGGTGTTGTAGTATATTTTTTTCTGCTGCACAAAATCGGAGTCACCTAGTGCAG” was 11200 fluorescence intensity (a.u.).
The value for “GCCGGCTAAACTGGCTTATTGTACTTGCTCTTACTTGACTCGGAGTCACCTAGTGCAG” was 9430 fluorescence intensity (a.u.); that for “GTGTGGTGGAGGAGATGTGTGTATGTGCTTCTTTCAGACACGGAGTCACCTAGTGCAG” was 8330 fluorescence intensity (a.u.); that for “TAGTTCGTTTGTTTGGCTCCGCAGTAGCTATATAATTTTTCGGAGTCACCTAGTGCAG” was 8560 fluorescence intensity (a.u.).
Turning to “GCGTCGGTCGGTTTCAGTTCAGGTGCCCTTCGTTGAAGGTCGGAGTCACCTAGTGCAG”, the binding signal was 8730 fluorescence intensity (a.u.).
Then “TTGGTTTCTCACGCTCTTGTATAAGCTATCCAGCTGATTTCGGAGTCACCTAGTGCAG”, with 10200 fluorescence intensity (a.u.); and “GATGAGCGATGTTTTTTTGTCTTCCTTTTCTCCTTTTACCCGGAGTCACCTAGTGCAG”, with 9440 fluorescence intensity (a.u.).
For the sequence “TTATGGCTATTACCCCATTTCGGATGCTTGACCGCTTGAACGGAGTCACCTAGTGCAG”, the binding signal is 8390 fluorescence intensity (a.u.).
Take “ATCTCCACGATGCATGTTCCACTGCTCTCTCTCTCTCTCTCGGAGTCACCTAGTGCAG”: the binding signal is 8140 fluorescence intensity (a.u.).
The value for “ATGAGGGGCTTACTGGGCTTGGGAACGTCGAGCGGCGCCACGGAGTCACCTAGTGCAG” was 10800 fluorescence intensity (a.u.); that for “TCTTCATCAGCATTTGTTAGAAAAGTTTCTAATATTTTTTCGGAGTCACCTAGTGCAG” was 8660 fluorescence intensity (a.u.); that for “ATCCAATTTGCTGCAGGAGTGGCCATGTTAATTTTGCTCTCGGAGTCACCTAGTGCAG” was 8380 fluorescence intensity (a.u.).
For the sequence “TGCCCGGTCCTTCCACTTTGTGCCAAGCTTGACCGACAGCCGGAGTCACCTAGTGCAG”, the binding signal was 8310 fluorescence intensity (a.u.).
Then “GTGTACGTCGTTGTTCTCCTACGTACAATTTGCTAAATTTCGGAGTCACCTAGTGCAG”, with 8160 fluorescence intensity (a.u.); and “TCTCTCACTTCACTCAACTCACTCACTGCTGCTGTCGTACCGGAGTCACCTAGTGCAG”, with 10500 fluorescence intensity (a.u.).
Then “TGGTAGGATGGGAGGAGCATATTTTTATAAAACTTTGAAACGGAGTCACCTAGTGCAG”, with 8500 fluorescence intensity (a.u.); and “ATCATGCACCTTCAGGATCAAGCATTTTGTTGCCGTCCGTCGGAGTCACCTAGTGCAG”, with 8250 fluorescence intensity (a.u.); and “TGCCATTCCGTACCTCTGGTCTACTCTGTACTTTGTTCCACGGAGTCACCTAGTGCAG”, with 12400 fluorescence intensity (a.u.).
The value for “TCGTCTGGTGCGCCGCCTACCTCGCCGCCGCCATCTCCTCCGGAGTCACCTAGTGCAG” was 12800 fluorescence intensity (a.u.); that for “GGTACTACTCTTCGCCATCGCCGCCGTGCTTCTCCTCGCCCGGAGTCACCTAGTGCAG” was 8310 fluorescence intensity (a.u.).
For “CACTTCAATTTGTGCACCATGCATGACACTCAGATTATTCCGGAGTCACCTAGTGCAG”, the binding signal was 9080 fluorescence intensity (a.u.).
With “CTTTTGAACGAAGTTTGACCATTCGTCTTATTCAAACACTCGGAGTCACCTAGTGCAG”, the binding signal was 9160 fluorescence intensity (a.u.).
The value for “TGCTTCCTCCAGGCTCTACGATCCCCACCGCTGCGCTGACCGGAGTCACCTAGTGCAG” was 8540 fluorescence intensity (a.u.).
Then “AGTAACTCCACTGCTCTGCTCTGTGCCTGAATCTCTGACACGGAGTCACCTAGTGCAG”, with 8320 fluorescence intensity (a.u.); and “GGGATGGAATGCAATGCCTGCTTTTTTAATGTACTACTACCGGAGTCACCTAGTGCAG”, with 8050 fluorescence intensity (a.u.).
As for “CCACACAAAGCCCTAGCATTCAAGCCCATTCCTACATTTCCGGAGTCACCTAGTGCAG”, the binding signal was 8880 fluorescence intensity (a.u.).
